# Laboratory results: PubChem BioAssay AID602196 (INSERM, 2012)
# Purpose: 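Modifiers of cisplatin sensitivity in A549 cells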
# System: human A549 lung cancer cells
# Knock-down reagent: siRNA pair against human genes
# Time to read-out: 48 h transfection before cisplatin; time from cisplatin to read-out not stated
# Challenge: cisplatin at a dose killing half of control-siRNA cells; exact dose and duration not given
# Read-out: 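Shift in cisplatin death relative to control siRNA, from -50 (all cells die) to +50 (no cells die); siRNAs harmful on their own scored 0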
# Direction: two-siRNA summed score (-2 to +2): higher = both siRNAs protect from cisplatin killing; -2 means both sensitise; mean protection from cisplatin (shift in death) and protection from cisplatin (shift in death), siRNA C and protection from cisplatin (shift in death), siRNA D: higher = protection from cisplatin killing
# Call rule: 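siRNAs harmful alone (LDH or WST-1) get 0; others get +1 for less and -1 for more cisplatin killing; genes are active when the two siRNAs give the same sign, summing to ±2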
# Calls: active = both siRNAs shift cisplatin killing the same way; inactive = no consistent shift, or siRNA harmful alone
# In all, the deposit lists about 23,000 reagents; this is an unselected part. In the full data, 455 (2%) were called active. 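Active includes both protection and sensitisation; some change values fall well beyond the stated -50 to +50 range.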 No sequences are given here. The record does not give: the amount of reagent.
Target gene,PubChem SID,two-siRNA summed score (-2 to +2),mean protection from cisplatin (shift in death) (%),"protection from cisplatin (shift in death), siRNA C (%)","protection from cisplatin (shift in death), siRNA D (%)",call
RELB,SID131514188,0,7.5,10.6,4.4,inactive
FAM162A,SID131504633,0,-4.9,-8.1,-1.6,inactive
AMMECR1,SID131504921,0,-4.2,-1,-7.4,inactive
SDC3,SID131513036,0,6.1,11.4,0.8,inactive
LOC388279,SID131506514,0,-1.4,-3,0.3,inactive
KCNA10,SID131501219,-1,-11.3,-4.7,-17.9,inactive
CES3,SID131520967,1,11.7,21.7,1.8,inactive
GPN1,SID131519605,1,6.6,12.7,0.5,inactive
LOC126661,SID131505138,0,-3.7,7,-14.4,inactive
RELN,SID131503521,0,-9.4,-20.2,1.3,inactive
CAPS,SID131513101,0,6.2,5,7.4,inactive
ZBTB9,SID131519229,1,3.9,16.1,-8.3,inactive
DEFB123,SID131518985,1,-0.1,10.8,-11,inactive
OR5F1,SID131508899,0,1.6,-3.1,6.3,inactive
CTNND1,SID131503772,0,-7.9,-21.3,5.5,inactive
PRORP,SID131515064,0,8.6,14.2,3.1,inactive
ABR,SID131518445,0,19.8,16.4,23.2,inactive
ORC6,SID131507241,0,-0.4,-6.2,5.4,inactive
NLGN1,SID131510891,0,3.7,-2.3,9.8,inactive
LOC146177,SID131506194,0,-1.9,-11.4,7.7,inactive
UGT2A1,SID131515334,0,9,9.8,8.2,inactive
TNS3,SID131513567,0,6.7,11,2.4,inactive
FLJ20972,SID131510276,0,3.1,-3.7,9.9,inactive
TAF11L1,SID131520011,1,8.3,-1.8,18.4,inactive
LOC153027,SID131514335,0,7.7,4.8,10.5,inactive
OTOGL,SID131509549,0,2.3,15.1,-10.6,inactive
LOC440804,SID131507995,0,0.5,2.7,-1.7,inactive
NBEA,SID131502515,-1,-1.5,12.7,-15.8,inactive
GPRIN2,SID131519102,1,2.4,-11.1,15.9,inactive
LOC391403,SID131520922,1,11.5,7.7,15.4,inactive
LOC441209,SID131519580,1,6.4,4.6,8.3,inactive
CRMA,SID131504033,0,-6.7,-4.6,-8.9,inactive
KIAA1328,SID131509032,0,1.7,4.9,-1.4,inactive
LRP11,SID131506810,0,-0.9,-7,5.1,inactive
SLC28A3,SID131506227,0,-1.8,2.8,-6.5,inactive
VEZF1,SID131514313,0,7.6,12,3.2,inactive
DYNLL1P3,SID131522827,1,25.7,22.2,29.2,inactive
PRR23E,SID131522990,2,16.1,13.5,18.7,active
LOC440839,SID131514685,0,8.1,10.3,5.9,inactive

Ordered by “protection from cisplatin (shift in death), siRNA D (%)” (descending): some entries from above.
Target gene,PubChem SID,two-siRNA summed score (-2 to +2),mean protection from cisplatin (shift in death) (%),"protection from cisplatin (shift in death), siRNA C (%)","protection from cisplatin (shift in death), siRNA D (%)",call
DYNLL1P3,SID131522827,1,25.7,22.2,29.2,inactive
PRR23E,SID131522990,2,16.1,13.5,18.7,active
VEZF1,SID131514313,0,7.6,12,3.2,inactive
